Test results published in patent US6906185B1, “Derivatives of 7-deaza -2′-deoxyguanosine-5'-triphosphate, preparation and use thereof” (Amersham Biosciences Corp., priority 1997, dated 2005).

System: pGEM3Zf+ (Promega)
Test: Dye-primer cycle sequencing reactions with Thermo Sequenase using dGTP or a dGTP analog; resolution of compression artifacts
Format: biochemical
Conditions: for % Accuracy / Errors: parallel sequences, region approximately 129 to approximately 421 bases from the priming site, at least 6 regions of compression artifacts, 940 μM dGTP or analog (234 μM for 7-propynyl-7-deaza dGTP); for Sequence quality in compressed region (FIG. 3): sequence region approximately 300 bases from the priming site; for Sequence quality in compressed region (FIG. 1): sequence region approximately 235 bases from the priming site; for Sequence quality in compressed region (FIG. 2): sequence region approximately 310 bases from the priming site
Protocol: Sequencing reaction mixtures were prepared as follows:
The reaction mixtures were placed in a thermal cycler (MJ research) and cycled 30 times at 95° C., 30 sec; 45° C., 15 sec; and 60° C., 4 min. Following the thermal cycling, the samples were pooled, and loaded onto the sequencing instrument as described for sequencing using the Dynamic Direct sequencing kit (Amersham).

| Structure (SMILES) | % Accuracy | Errors | Sequence quality in compressed region (FIG. 3) | Sequence quality in compressed region (FIG. 1) | Sequence quality in compressed region (FIG. 2) |
| --- | --- | --- | --- | --- | --- |
| Nc1nc2c(ccn2[C@H]2C[C@H](O)[C@@H](COP(=O)(O)OP(=O)(O)OP(=O)(O)O)O2)c(=O)[nH]1 [Example 7-deaza-dGTP, 7-deaza-2′-deoxyguanosine-5′-triphosphate] | 98% | 5 |  |  |  |
| Nc1nc2c(c(I)cn2[C@H]2C[C@H](O)[C@@H](COP(=O)(O)OP(=O)(O)OP(=O)(O)O)O2)c(=O)[nH]1 [7-Iodo-7-deaza-dGTP, 7-Iodo-7-deaza-2′-deoxyguanosine-5′-triphosphate] | 92% | 22 |  |  |  |
| Nc1nc2c(c(CO)cn2[C@H]2C[C@H](O)[C@@H](COP(=O)(O)OP(=O)(O)OP(=O)(O)O)O2)c(=O)[nH]1 [7-hydroxymethyl-7-deaza-dGTP, 7-Hydroxymethyl-7-Deaza-2′-Deoxyguanosine-5′-Triphosphate] |  |  | correct sequence |  |  |
| Nc1nc2c(c(Cl)cn2[C@H]2C[C@H](O)[C@@H](COP(=O)(O)OP(=O)(O)OP(=O)(O)O)O2)c(=O)[nH]1 [7-Chloro-7-deaza-dGTP, 7-Chloro-7-deaza-2′-deoxyguanosine-5′-triphosphate] | 92% | 23 |  |  |  |
| CC#Cc1cn([C@H]2C[C@H](O)[C@@H](COP(=O)(O)OP(=O)(O)OP(=O)(O)O)O2)c2nc(N)[nH]c(=O)c12 [7-Propynyl-7-deaza-dGTP, 7-(Prop-1-ynyl)-7-Deaza-2′-Deoxyguanosine-5′-Triphosphate] | 92% | 21 |  |  |  |
| Nc1nc2c(ncn2[C@H]2C[C@H](O)[C@@H](COP(=O)(O)OP(=O)(O)OP(=O)(O)O)O2)c(=O)[nH]1 [dGTP, 2′-deoxyguanosine-5′-triphosphate] | 94% | 17 | has a compressed region | compressed region in which anomalous migration of several bases results in sequence errors | has a compressed region |
| CCCc1cn([C@H]2C[C@H](O)[C@@H](COP(=O)(O)OP(=O)(O)OP(=O)(O)O)O2)c2nc(N)[nH]c(=O)c12 [7-propyl-7-deaza-dGTP, 7-propyl-7-deaza-2′-deoxyguanosine-5′-triphosphate] | 99% | 3 |  | has the correct sequence | the only one which could be edited by simple inspection to the correct sequence |
| CCc1cn([C@H]2C[C@H](O)[C@@H](COP(=O)(O)OP(=O)(O)OP(=O)(O)O)O2)c2nc(N)[nH]c(=O)c12 [7-ethyl-7deaza-dGTP, 7-ethyl-7-deaza-2′-deoxyguanosine-5′-triphosphate] |  |  | correct sequence |  |  |
